The list does not hold the whole screen: it is rich in T/C values a quarter to a half above the control, in often repeated tests (any T/C) and in doses without a T/C. Other doses and runs of a compound stand elsewhere. T/C: endpoint of the treated group in % of that of the vehicle group. Some entries give survivors of the animals treated and no T/C: the source holds a T/C of zero for them, seemingly a mark for toxic or unscored doses. Some survivor counts are full or nearly so, which does not show that the dose was tolerated: the source hardly ever lists a survival T/C far under the control, and the zero likely stands for such cases as well. Survivors were counted at the toxicity check, usually on the fifth day, unless a day is given; later deaths do not show. Schedules are NCI's codes, read here as Q, the interval in days (D) or hours (H), X, the number of doses. Some entries were tested several times; the values are given in rising order. For survival time, the PubChem record calls one and a half times the control and up active, and a quarter to a half above the control has no call in these data; cut-offs in other NCI protocols can differ. Some T/C values carry the count of animals alive at the toxicity check (mostly the fifth day); where none is given, no animal had died by that day. Marks such as (2×) count equal records among those shown.
Test system: C57BL/6 mice, intracerebral ependymoblastoma, median survival T/C
Experiment: NCI In Vivo Anticancer Drug Screen. Data for tumor model Ependymoblastoma (intracerebral) in C57BL/6 mice
Details: T/C endpoint: median survival time, higher T/C = longer survival
Method: The antitumor activity of compounds was measured in mice bearing transplantable tumors. Survival or tumor size were measured and the results are expressed as the measurement made in the treated group (T) divided by the measurement made in the vehicle treated control group (C). The tumor model used in this assay is Ependymoblastoma (intracerebral) in C57BL/6 mice

[1] = dose: 2.5 mg/kg/injection, schedule: Q01DX001 (ip), vehicle: Klucel (hydroxypropylcellulose) (HPC)
[2] = dose: 40.0 mg/kg/injection, schedule: Q01DX001 (ip), vehicle: Klucel (hydroxypropylcellulose) (HPC)
[3] = dose: 80.0 mg/kg/injection, schedule: Q01DX001 (ip), vehicle: Klucel (hydroxypropylcellulose) (HPC)
[4] = dose: 80.0 mg/kg/injection, schedule: Q01DX005 (ip), vehicle: saline
[5] = dose: 160.0 mg/kg/injection, schedule: Q01DX005 (ip), vehicle: saline
[6] = dose: 320.0 mg/kg/injection, schedule: Q01DX005 (ip), vehicle: saline
[7] = dose: 640.0 mg/kg/injection, schedule: Q01DX005 (ip), vehicle: saline
[8] = dose: 1280.0 mg/kg/injection, schedule: Q01DX005 (ip), vehicle: saline
[9] = dose: 25.0 mg/kg/injection, schedule: Q01DX001 (ip), vehicle: water

CN(C)C(=O)N(CCCl)N=O
T/C [1]: 94 [4 of 10 alive], 105, 107 [8 of 10 alive], 112, 116, 118, 121, 128 % of control
survivor count [1]: 4 of 10
T/C (dose: 5.0 mg/kg/injection, schedule: Q01DX001 (ip), vehicle: Klucel (hydroxypropylcellulose) (HPC)): 104 [7 of 10 alive], 107, 107 [6 of 10 alive], 116 [7 of 10 alive], 117, 121, 122, 125, 139 % of control
T/C (dose: 10.0 mg/kg/injection, schedule: Q01DX001 (ip), vehicle: Klucel (hydroxypropylcellulose) (HPC)): 100 [6 of 10 alive], 102 [5 of 10 alive], 113, 125 [6 of 10 alive], 126, 127, 128, 144, 161 % of control
T/C (dose: 10.0 mg/kg/injection, schedule: Q01DX001 (ip), vehicle: other): 127 % of control
T/C (dose: 20.0 mg/kg/injection, schedule: Q01DX001 (ip), vehicle: Klucel (hydroxypropylcellulose) (HPC)): 95 [4 of 10 alive], 97 [3 of 10 alive], 103 [6 of 10 alive], 148, 159, 184 [9 of 10 alive], 197, 201, 204 % of control
survivor count (dose: 32.0 mg/kg/injection, schedule: Q01DX001 (ip), vehicle: other): 7 of 10
T/C [2]: 91, 99 [4 of 10 alive], 99 [8 of 10 alive], 114 [7 of 10 alive], 123, 196, 250 % of control
survivor count [2]: 4 of 10 and 8 of 10
survivor count (dose: 40.0 mg/kg/injection, schedule: Q01DX001 (ip), vehicle: other): 9 of 10
survivor count (dose: 64.0 mg/kg/injection, schedule: Q01DX001 (ip), vehicle: other): 8 of 10
T/C [3]: 97 [4 of 10 alive], 99 [3 of 10 alive], 100 % of control [6 of 10 alive]
survivor count [3]: 1 of 10, 2 of 10, 4 of 10, 5 of 10

CC(=O)[C@]1(O)Cc2c(O)c3c(c(O)c2[C@@H](OC2CC(N)C(O)C(C)O2)C1)C(=O)c1c(O)cccc1C3=O (stereo not given in full)
survivor count (dose: 250.0 micrograms/kg/injection, schedule: Q01DX005 (ip), vehicle: suspension in saline): 7 of 10
survivor count (dose: 500.0 micrograms/kg/injection, schedule: Q01DX005 (ip), vehicle: suspension in saline): 0 of 10

OC(CCl)CN1CC[N+]2(CC1)CC[N+]1(CCN(CC(O)CCl)CC1)CC2 (stereo not given)
T/C [4]: 100, 101 (2×), 116 % of control
T/C [5]: 97, 105, 114, 119 % of control
T/C [6]: 90, 100, 118 [9 of 10 alive], 139 % of control
T/C [7]: 105 % of control
survivor count [7]: 0 of 10, 4 of 10, 9 of 10
T/C [8]: 135 % of control
survivor count [8]: 1 of 10

O=c1ccn(C2OC(CO)C(O)C2O)c(=O)[nH]1 (stereo not given)
survivor count (dose: 1024.0 mg/kg/injection, schedule: Q01DX005 (ip), vehicle: saline): 10 of 10

Nc1ccc(S(=O)(=O)c2ccc(N)cc2)cc1
survivor count (dose: 360.0 mg/kg/injection, schedule: Q01DX005 (ip), vehicle: saline with Tween-80): 4 of 10 and 5 of 10
survivor count (dose: 720.0 mg/kg/injection, schedule: Q01DX005 (ip), vehicle: saline with Tween-80): 1 of 10 and 8 of 10

CN(C)CC(=O)c1ccc(O)c(O)c1
survivor count (dose: 800.0 mg/kg/injection, schedule: Q01DX005 (ip), vehicle: saline): 10 of 10

NC(=O)c1ncn(C2OC(CO)C(O)C2O)n1 (stereo not given)
T/C [5]: 126 % of control
survivor count [6]: 10 of 10
survivor count [7]: 10 of 10

O=C(CCCN1CCC(O)(c2cccc(C(F)(F)F)c2)CC1)c1ccc(F)cc1
survivor count (dose: 100.0 mg/kg/injection, schedule: Q04DX003 (ip), vehicle: Klucel (hydroxypropylcellulose) (HPC)): 1 of 10
survivor count (dose: 200.0 mg/kg/injection, schedule: Q04DX003 (ip), vehicle: Klucel (hydroxypropylcellulose) (HPC)): 0 of 10

COC(=O)[C@@]12OC[C@]34[C@H]([C@@H](O)[C@@H]1O)[C@@]1(C)CC(=O)C(O)=C(C)[C@@H]1C[C@H]3OC(=O)[C@H](OC(=O)/C=C(\C)C(C)C)[C@@H]24
survivor count (dose: 1.0 mg/kg/injection, schedule: Q01DX005 (ip), vehicle: Klucel (hydroxypropylcellulose) (HPC)): 7 of 10
survivor count (dose: 2.0 mg/kg/injection, schedule: Q01DX005 (ip), vehicle: Klucel (hydroxypropylcellulose) (HPC)): 0 of 10 and 5 of 10
survivor count (dose: 2000.0 micrograms/kg/injection, schedule: Q01DX005 (ip), vehicle: saline + alcohol): 7 of 10

COc1cc([C@@H]2c3cc4c(cc3[C@@H](OC3OC5CO[C@@H](c6cccs6)OC5C(O)C3O)[C@H]3COC(=O)[C@H]23)OCO4)cc(OC)c1O (stereo not given in full)
survivor count (dose: 2.0 mg/kg/injection, schedule: Q01DX005 (oral), vehicle: saline): 10 of 10

COc1ccc(C[C@H](N)C(=O)NC2C(CO)OC(n3cnc4c(N(C)C)ncnc43)C2O)cc1 (stereo not given in full)
survivor count [4]: 10 of 10
survivor count [5]: 4 of 10
survivor count [6]: 0 of 10
survivor count [7]: 0 of 10

CO[C@H]1C[C@@H]2CC[C@@H](C)[C@@](O)(O2)C(=O)C(=O)N2CCCC[C@H]2C(=O)O[C@H]([C@H](C)C[C@@H]2CC[C@@H](O)[C@H](OC)C2)CC(=O)[C@H](C)C=C(C)[C@@H](O)[C@@H](OC)C(=O)[C@H](C)C[C@H](C)/C=C/C=C/C=C1C
T/C (dose: 3.12 mg/kg/injection, schedule: Q01DX009 (ip), vehicle: clinical formulation): 138 % of control
T/C (dose: 6.25 mg/kg/injection, schedule: Q01DX009 (ip), vehicle: clinical formulation): 133 % of control
T/C (dose: 12.5 mg/kg/injection, schedule: Q01DX009 (ip), vehicle: clinical formulation): 146 % of control
T/C (dose: 12.5 mg/kg/injection, schedule: Q01DX009 (ip), vehicle: saline with Tween-80): 136 % of control
T/C (dose: 25.0 mg/kg/injection, schedule: Q01DX009 (ip), vehicle: clinical formulation): 144 % of control
T/C (dose: 25.0 mg/kg/injection, schedule: Q01DX009 (ip), vehicle: saline with Tween-80): 130 % of control
T/C (dose: 50.0 mg/kg/injection, schedule: Q01DX009 (ip), vehicle: clinical formulation): 148 % of control [8 of 9 alive]
T/C (dose: 50.0 mg/kg/injection, schedule: Q01DX009 (ip), vehicle: saline with Tween-80): 125 % of control [8 of 10 alive]
survivor count (dose: 100.0 mg/kg/injection, schedule: Q01DX009 (ip), vehicle: clinical formulation): 9 of 10
survivor count (dose: 200.0 mg/kg/injection, schedule: Q01DX009 (ip), vehicle: clinical formulation): 4 of 10

O=P1(NCCCl)OCCCN1CCCl (stereo not given)
T/C [9]: 135 % of control
survivor count [9]: 8 of 9
T/C (dose: 50.0 mg/kg/injection, schedule: Q01DX001 (ip), vehicle: water): 129 % of control
T/C (dose: 50.0 mg/kg/injection, schedule: Q01DX005 (ip), vehicle: saline): 127 % of control
T/C (dose: 50.0 mg/kg/injection, schedule: Q01DX005 (ip), vehicle: water): 136 % of control
T/C (dose: 100.0 mg/kg/injection, schedule: Q01DX001 (ip), vehicle: water): 135 % of control [9 of 10 alive]
T/C (dose: 100.0 mg/kg/injection, schedule: Q01DX005 (ip), vehicle: saline): 141 % of control [7 of 8 alive]
T/C (dose: 200.0 mg/kg/injection, schedule: Q01DX001 (ip), vehicle: water): 146 % of control
T/C (dose: 200.0 mg/kg/injection, schedule: Q01DX005 (ip), vehicle: saline): 146 % of control
survivor count (dose: 200.0 mg/kg/injection, schedule: Q01DX005 (ip), vehicle: water): 10 of 10
survivor count (dose: 400.0 mg/kg/injection, schedule: Q01DX005 (ip), vehicle: water): 8 of 10 and 9 of 10

CN(C)N=Nc1ccc(C(N)=O)cc1
T/C (dose: 8.0 mg/kg/injection, schedule: Q01DX005 (ip), vehicle: saline with Tween-80): 138 % of control
T/C (dose: 16.0 mg/kg/injection, schedule: Q01DX005 (ip), vehicle: saline with Tween-80): 139 % of control
T/C (dose: 32.0 mg/kg/injection, schedule: Q01DX005 (ip), vehicle: saline with Tween-80): 148 % of control
survivor count (dose: 64.0 mg/kg/injection, schedule: Q01DX005 (ip), vehicle: saline with Tween-80): 10 of 10
survivor count (dose: 128.0 mg/kg/injection, schedule: Q01DX005 (ip), vehicle: saline with Tween-80): 7 of 10

From PubChem BioAssay AID222 (DTP/NCI, 2004)
